Measurements reported in US6497899B2, “Rapidly disintegrating and fast-dissolving solid dosage form” (Pfizer, Inc., priority 2000, dated 2002).

Assay: Dissolution testing of medicated tablets, USP/NF method 711, apparatus 2 at 50 RPM, UV absorption
Type: physicochemical
Details: medicated steam extruded starch solid dosage form; dissolution media deionized H2O; apparatus 2, 50 RPM, 37 C
Procedure: Dosage form dissolution is measured by the United States Pharmacopeia/National Formulary (USP/NF) method 711 (United States Pharmacopeia, Rockville, Md., USA) and is summarized below:
The assembly from Apparatus 1 is used except that a paddle formed from a blade and a shaft is used as the stirring element. The shaft is positioned so that its axis is not more than 2 mm at any point from the vertical axis of the vessel and rotates smoothly without significant wobble. The vertical center line of the blade passes through the axis of the shaft so that the bottom of the blade is flush with the bottom of the shaft. The distance of 25±2 mm between the blade and the inside bottom of the vessel is maintained during the test. The metallic or suitably inert, rigid blade and shaft comprise a single entity that may be coated with a suitable inert coating. The dosage unit is allowed to sink to the bottom of the vessel before rotation of the blade is started. A small, loose piece of nonreactive material such as not more than a few turns of wire helix may be attached to dosage units that would otherwise float. Other validated sinker devices may be used. […]
The stated volume of the dissolution medium (±1%) is placed in the vessel of the apparatus. The dissolution medium is equilibrated to 37±0.5°C., and the thermometer removed. One solid dosage form is placed in the apparatus, taking care to exclude air bubbles from the surface of the dosage-form unit and either apparatus is immediately operated at a rate of 50 rpm. The concentration of dissolved drug in dissolution medium is measured over time by ultraviolet spectrophotometer to calculate the dissolution rate.
The medicated tablets were dissolved according to USP/NF method 711 using apparatus 2 at 50 RPM. Levels of medicament released were determined by UV absorption. […] Dissolution rates were rapid with 61% of the drug releasing after 1 minute and 80% of the drug releasing after 5 minutes on average.

Q: With `COc1cc2c(cc1OC)C(=O)C(CC1CCN(Cc3ccccc3)CC1)C2.Cl` (stereo not drawn) [Donepezil.HCl] as the molecule, how does the 1 minute release read?
A: 84.9%

Q: What about the 5 minute release of the same molecule?
A: 90.7%

Q: What about the 60 minute release of the same molecule?
A: 98.2%
